Drawing on paper PMC2637609, this text covers binding for three molecules.

Experiment [1] deals with T1, Coilin (Drosophila (endogenous in larvae)) (UniProt A1Z7A8).
T1 sequence: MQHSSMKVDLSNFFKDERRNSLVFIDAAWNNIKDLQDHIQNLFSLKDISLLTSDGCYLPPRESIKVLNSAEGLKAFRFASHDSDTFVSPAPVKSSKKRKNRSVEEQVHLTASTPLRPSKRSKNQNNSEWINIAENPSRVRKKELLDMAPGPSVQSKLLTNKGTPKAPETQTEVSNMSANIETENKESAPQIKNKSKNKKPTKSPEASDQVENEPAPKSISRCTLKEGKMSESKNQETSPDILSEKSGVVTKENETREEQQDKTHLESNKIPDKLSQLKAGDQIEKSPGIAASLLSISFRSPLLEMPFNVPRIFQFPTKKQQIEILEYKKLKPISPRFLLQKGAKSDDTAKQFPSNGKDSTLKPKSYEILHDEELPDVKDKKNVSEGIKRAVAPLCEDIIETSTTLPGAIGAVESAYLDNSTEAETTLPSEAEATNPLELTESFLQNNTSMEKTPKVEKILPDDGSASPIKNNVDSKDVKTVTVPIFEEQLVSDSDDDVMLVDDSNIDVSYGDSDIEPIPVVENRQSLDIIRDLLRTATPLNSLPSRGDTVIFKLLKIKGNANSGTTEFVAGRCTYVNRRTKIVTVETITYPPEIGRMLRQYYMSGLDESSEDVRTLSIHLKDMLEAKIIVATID
Nature of the experiment: co-IP; guinea pig anti-Coilin antibody, Protein-G Sepharose; total protein extracts of Drosophila PARP1 mutant stock expressing PARP1-ECFP or PARPe-EGFP (wild type as control); Western blot. (In western blotting, separated proteins are transferred to a membrane and probed.)

The next experiment deals with T2, PARP1-ECFP (Drosophila) (UniProt P35875).
T2 sequence: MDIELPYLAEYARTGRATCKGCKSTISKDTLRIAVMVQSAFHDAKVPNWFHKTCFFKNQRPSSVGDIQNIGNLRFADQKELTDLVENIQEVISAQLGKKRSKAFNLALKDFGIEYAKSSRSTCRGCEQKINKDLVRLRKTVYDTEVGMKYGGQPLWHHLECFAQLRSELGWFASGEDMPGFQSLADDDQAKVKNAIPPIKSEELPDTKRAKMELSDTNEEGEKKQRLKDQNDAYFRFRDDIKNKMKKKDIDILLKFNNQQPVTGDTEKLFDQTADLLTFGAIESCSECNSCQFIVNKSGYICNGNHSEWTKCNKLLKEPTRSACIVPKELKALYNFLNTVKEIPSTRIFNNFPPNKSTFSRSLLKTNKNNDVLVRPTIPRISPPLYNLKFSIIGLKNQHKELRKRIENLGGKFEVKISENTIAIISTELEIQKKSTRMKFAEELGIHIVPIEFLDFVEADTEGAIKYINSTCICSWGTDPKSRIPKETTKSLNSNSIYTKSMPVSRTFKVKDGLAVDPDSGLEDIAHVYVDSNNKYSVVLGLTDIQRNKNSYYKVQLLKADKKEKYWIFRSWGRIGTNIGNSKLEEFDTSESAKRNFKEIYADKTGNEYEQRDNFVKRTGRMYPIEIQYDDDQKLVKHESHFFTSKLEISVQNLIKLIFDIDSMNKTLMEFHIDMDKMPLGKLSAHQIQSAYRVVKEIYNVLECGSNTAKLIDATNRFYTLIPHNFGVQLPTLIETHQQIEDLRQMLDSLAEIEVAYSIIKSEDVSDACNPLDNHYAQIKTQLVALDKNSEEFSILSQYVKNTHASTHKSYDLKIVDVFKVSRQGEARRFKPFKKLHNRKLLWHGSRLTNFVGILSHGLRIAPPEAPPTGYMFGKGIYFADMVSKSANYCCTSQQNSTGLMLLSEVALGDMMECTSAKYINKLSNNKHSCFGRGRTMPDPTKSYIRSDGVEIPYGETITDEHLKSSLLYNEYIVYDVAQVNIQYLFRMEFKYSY
Nature of the experiment: co-IP; rabbit anti-GFP antibody, Protein-G Sepharose; extracts of Drosophila stocks expressing PARP1-ECFP or PARPe-EGFP (wild type as control); Western blot.

Experiment [2] addresses T3, intrinsic PARP1 protein (Drosophila (endogenous in wild-type Drosophila)) (UniProt P35875).
T3 sequence: T2 sequence
The experiment can be described thus: co-IP; rabbit antibody against the C-terminal domain of PARP1 (anti-GFP as control); extracts of wild-type Drosophila; Western blot.

Results are given in words; binding and its absence hold for the method and conditions named. Binding seen in cells or lysates may run through a third protein. Some results given as binding are weak or reduced against the parent protein; the word gives no strength. For some assays here: Sequences can lack the tags named with a protein.

B1: PARP1-ECFP (enzyme, UniProt P35875 1-994)
chain: T2 sequence
On to B1, for which the binding entry in experiment [1] is “binds”.

B2: disk-large (Dlg) (protein, UniProt P31007 1-970)
chain: MPVKKQEAHRALELLEDYHARLSEPQDRALRIAIERVIRIFKSRLFQALLDIQEFYELTLLDDSKSIQQKTAETLQIATKWEKDGQAVKIADFIKSSNLNRNCAYEFNNDASSNQTNQSALNQNPIANNVSAQAQAEALSRTFKSELEEILNQRMRIESDTENAKEPTVEQQQKQQQAQQRSSRSPQQQNPQQQQGSKSRSGSQTVNGDDSWLYEDIQLERGNSGLGFSIAGGTDNPHIGTDTSIYITKLISGGAAAADGRLSINDIIVSVNDVSVVDVPHASAVDALKKAGNVVKLHVKRKRGTATTPAAGSAAGDARDSAASGPKVIEIDLVKGGKGLGFSIAGGIGNQHIPGDNGIYVTKLMDGGAAQVDGRLSIGDKLIAVRTNGSEKNLENVTHELAVATLKSITDKVTLIIGKTQHLTTSASGGGGGGLSSGQQLSQSQSQLATSQSQSQVHQQQHATPMVNSQSTEPGSRYASTNVLAAVPPGTPRAVSTEDITREPRTITIQKGPQGLGFNIVGGEDGQGIYVSFILAGGPADLGSELKRGDQLLSVNNVNLTHATHEEAAQALKTSGGVVTLLAQYRPEEYNRFEARIQELKQQAALGAGGSGTLLRTTQKRSLYVRALFDYDPNRDDGLPSRGLPFKHGDILHVTNASDDEWWQARRVLGDNEDEQIGIVPSKRRWERKMRARDRSVKFQGHAAANNNLDKQSTLDRKKKNFTFSRKFPFMKSRDEKNEDGSDQEPFMLCYTQDDANAEGASEENVLSYEAVQRLSINYTRPVIILGPLKDRINDDLISEYPDKFGSCVPHTTRPKREYEVDGRDYHFVSSREQMERDIQNHLFIEAGQYNDNLYGTSVASVREVAEKGKHCILDVSGNAIKRLQVAQLYPVAVFIKPKSVDSVMEMNRRMTEEQAKKTYERAIKMEQEFGEYFTGVVQGDTIEEIYSKVKSMIWSQSGPTIWVPSKESL
As for B2, the binding entry (in experiment [1]; in the experiment with PARP1-ECFP (Drosophila)) was “no binding” each time.

B3: Coilin (protein, UniProt A1Z7A8 1-634)
chain: T1 sequence
For B3, the binding entry (with PARP1-ECFP (Drosophila); in experiment [2]) was “binds” throughout.
